Source: patent US20240336701A1
No constants are given. Whether binding was seen depends on the method and setting.

Target: T1, human ENTPD1 (CD39), full length, on NIH/3T3 cells (human) (UniProt P49961)
T1 sequence: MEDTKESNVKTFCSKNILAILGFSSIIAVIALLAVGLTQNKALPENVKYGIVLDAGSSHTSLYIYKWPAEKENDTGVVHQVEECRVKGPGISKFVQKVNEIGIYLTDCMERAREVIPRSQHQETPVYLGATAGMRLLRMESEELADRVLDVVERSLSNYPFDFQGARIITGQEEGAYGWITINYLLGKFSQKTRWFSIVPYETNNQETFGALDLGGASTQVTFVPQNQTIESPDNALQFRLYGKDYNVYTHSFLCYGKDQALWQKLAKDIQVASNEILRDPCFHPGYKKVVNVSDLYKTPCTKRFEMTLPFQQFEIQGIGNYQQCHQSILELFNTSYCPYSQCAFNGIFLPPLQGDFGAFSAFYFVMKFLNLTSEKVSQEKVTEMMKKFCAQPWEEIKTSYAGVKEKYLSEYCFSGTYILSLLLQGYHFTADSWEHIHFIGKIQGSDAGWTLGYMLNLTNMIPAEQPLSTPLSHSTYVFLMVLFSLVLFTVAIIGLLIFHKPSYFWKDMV
Assay: flow cytometry, NIH/3T3 cells expressing human ENTPD1

B1: ANTI-HUMAN ENTPD2 MAB8 (antibody, human IgG1, lambda, V domains shown)
VH: QVQLQQSGPGLVKPSQTLSLTCAISGDSVSSSSAAWNWIRQSPSRGLEWLGRIYYRSKWYNDYAVSVKSRITINPDTSKNQFSLQLNSVTPEDTAVYYCARGSYVTSSYEGFDYWGQGTLVTVSS
VL: SYELTQPLSVSVALGQTARITCSGDNLPEKYAYWYQQKPGQAPVLVIYDDNKRPSGIPERFSGSNSGNTATLTISRAQAGDEADYYCQSYGKWGWTWVFGGGTKLTVLG
Question: Which binding does the source give for B1 here?
Answer: The binding was “no binding (tested: >100 nM)”.
